The other results are listed elsewhere or left out.
Biological target: OsWRKY34 (Oryza sativa, UniProt Q0JBA9 1-250)
Assay: protein-binding microarray (RPBM); PBS, 2% BSA, 51.3 ng/ul salmon testes DNA, 50 uM zinc acetate, 200 nM TF, 25 C, 1 h; high values mean tight binding
Conditions: protein: recombinant; tags: N-terminal polyhistidine and DsRed monomer fusion (pET32a); label: CyDye5-dUTP incorporated in the synthesized complementary strand; 3' TTTTT single-stranded linker to array surface; dsDNA, one strand shown
Outline: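 An Axon 4000B scanner gave the binding signal as per-feature fluorescence intensity in arbitrary units. This followed washing of a custom Agilent array that had been incubated for 1 h at 25 °C with 200 nM protein in PBS, 2% BSA, salmon testes DNA and 50 µM zinc acetate. The proteins were transcription factors fused at the N-terminus to polyhistidine and DsRed, expressed in E. coli BL21-CodonPlus and purified on Ni–NTA.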

Protein sequences, listed by entry. Tags and fused reporters are not part of them.
UniProt Q0JBA9, entry or part of it: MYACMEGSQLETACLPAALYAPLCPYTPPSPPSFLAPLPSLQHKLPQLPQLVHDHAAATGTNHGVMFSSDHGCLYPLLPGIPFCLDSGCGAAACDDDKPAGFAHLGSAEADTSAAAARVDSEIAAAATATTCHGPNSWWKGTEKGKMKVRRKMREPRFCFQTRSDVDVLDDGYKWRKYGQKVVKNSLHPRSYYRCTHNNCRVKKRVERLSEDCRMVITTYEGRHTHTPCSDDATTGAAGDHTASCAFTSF

“TCCCCAGTTATTAATTCCGCATTCCAGTTGACCAGTTGTACGGAGTCACCTAGTGCAG” was tested. Which binding signal did it give?
Its binding signal is 9020 fluorescence intensity (a.u.).

Which binding signal does the source give for “GTACCCAATCGCGTCCACGTACTATTCCACTCTCTAACCTCGGAGTCACCTAGTGCAG” here?
Its binding signal is 10300 fluorescence intensity (a.u.).

For “CCCTGGTATCCGCGCCCAATGTTTGACCGTCCGTTTTATTCGGAGTCACCTAGTGCAG”, which binding signal is on record?
The binding signal was 12600 fluorescence intensity (a.u.).

How did the binding signal turn out when “ACTTTCAACCTCCTTGAAATGTTACTCATATGTTTGGGCGCGGAGTCACCTAGTGCAG” was run?
The binding signal was 8920 fluorescence intensity (a.u.).

With “CGTTCTCCGTTTTGGTTTTTTATCGTAGTTCCGTTCTGGGCGGAGTCACCTAGTGCAG” as the sequence, how does the binding signal read?
The binding signal was 9870 fluorescence intensity (a.u.).

With “CCTTATTTTTAATTCTGAATTTTAGCTATTTTATATTGTACGGAGTCACCTAGTGCAG” as the sequence, how does the binding signal read?
The binding signal was 8080 fluorescence intensity (a.u.).

How did the binding signal turn out when “GATTCCTTCCTAGCTGTCACGTCATAGACTTCCCGAAGACCGGAGTCACCTAGTGCAG” was run?
Its binding signal is 8540 fluorescence intensity (a.u.).

“CTTTGACCCTGTTGACTGGCTCCCCACTTATCAACCACACCGGAGTCACCTAGTGCAG” was tested. Which binding signal did it give?
The binding signal was 11000 fluorescence intensity (a.u.).

Which binding signal does the source give for “TGTTTTCTACTTTGTTCATAGGGGTGAGGGTACGTTCGTTCGGAGTCACCTAGTGCAG” here?
The binding signal was 10600 fluorescence intensity (a.u.).

For “TTTCCTTTTTCCTACTATCATTATATTCCATTCTATTTTTCGGAGTCACCTAGTGCAG”, which binding signal is on record?
The binding signal was 11000 fluorescence intensity (a.u.).

With “CGCCCTAACTTTGATCATCTGTCTTATTTAAATAAATTTTCGGAGTCACCTAGTGCAG” as the sequence, how does the binding signal read?
The binding signal was 10100 fluorescence intensity (a.u.).

How did the binding signal turn out when “GGCTGGATGGTGCTCTCCTAAAATTTTGCTTCTTTTACTGCGGAGTCACCTAGTGCAG” was run?
The binding signal was 9930 fluorescence intensity (a.u.).

How did the binding signal turn out when “TGGGAGCAATGAATCTGCCACTGTCACCCCACCATTTTTTCGGAGTCACCTAGTGCAG” was run?
Its binding signal is 8970 fluorescence intensity (a.u.).

How did the binding signal turn out when “TTATTTCTGCCATTGCAGTTTCGCCGCTATATCGGTTTGTCGGAGTCACCTAGTGCAG” was run?
Its binding signal is 8170 fluorescence intensity (a.u.).

How did the binding signal turn out when “TTTGTATAGTTGGGTGTGAAGAATGTCCGGTTTTGTGGTTCGGAGTCACCTAGTGCAG” was run?
Its binding signal is 8060 fluorescence intensity (a.u.).

“ACCCTCTGAGATCACCCTGACCGATCTCACCCGTCACCGACGGAGTCACCTAGTGCAG” was tested. Which binding signal did it give?
Its binding signal is 10100 fluorescence intensity (a.u.).

For “CATTTCTTTAACTTCGTCTTGTGTAGCTTCAACAGTTTGCCGGAGTCACCTAGTGCAG”, which binding signal is on record?
Its binding signal is 11500 fluorescence intensity (a.u.).

“ACATTTCTTTGTGATTGGATCGCCACCCTGGTGCCACGTGCGGAGTCACCTAGTGCAG” was tested. Which binding signal did it give?
The binding signal was 9060 fluorescence intensity (a.u.).

Which binding signal does the source give for “GAGAGGAAGAGGGGAAGGGCATGTGGGTCTCACATTTTTACGGAGTCACCTAGTGCAG” here?
Its binding signal is 10800 fluorescence intensity (a.u.).

For “CGGAAACCCAACCGCCCGTCCGCCAGCCCAGCCGCTGTGACGGAGTCACCTAGTGCAG”, which binding signal is on record?
Its binding signal is 10500 fluorescence intensity (a.u.).

For “ATTCCGCGCGCACCACACTGCCGGTCTCGTCGACATCGATCGGAGTCACCTAGTGCAG”, which binding signal is on record?
Its binding signal is 11000 fluorescence intensity (a.u.).

With “ACCGTGTTGATAGAAATTTGTCATAGTCTCACATATTTTCCGGAGTCACCTAGTGCAG” as the sequence, how does the binding signal read?
Its binding signal is 10000 fluorescence intensity (a.u.).

How did the binding signal turn out when “TTGTCTTCTCTGCATCCTTTCCTTGCCGCCGGCCAATTTACGGAGTCACCTAGTGCAG” was run?
Its binding signal is 8880 fluorescence intensity (a.u.).

How did the binding signal turn out when “CCCCTAGCACCCTCCTCCCACCTTGGCCACCCAGTTTACACGGAGTCACCTAGTGCAG” was run?
The binding signal was 8070 fluorescence intensity (a.u.).

For “AGTTTGCACAAAACCTGGCTTCTGTCTGTGGTCTATATAACGGAGTCACCTAGTGCAG”, which binding signal is on record?
Its binding signal is 9270 fluorescence intensity (a.u.).

“ATTAATTTTTTGCCAGTGGATCCATATGTTATAGACACATCGGAGTCACCTAGTGCAG” was tested. Which binding signal did it give?
The binding signal was 8250 fluorescence intensity (a.u.).

For “GTGCTTGTCCTGCCTGCTTCGCTGACCTGTATAGCTTGACCGGAGTCACCTAGTGCAG”, which binding signal is on record?
Its binding signal is 9260 fluorescence intensity (a.u.).

With “CCGTTCTGACGTCGCCGTCGCCGCCGCAGATGACATTATTCGGAGTCACCTAGTGCAG” as the sequence, how does the binding signal read?
The binding signal was 8420 fluorescence intensity (a.u.).

“AGGAGCATATTTATTTGGTATTTCAAGGTCGTTTTTTTTGCGGAGTCACCTAGTGCAG” was tested. Which binding signal did it give?
The binding signal was 8240 fluorescence intensity (a.u.).

Which binding signal does the source give for “CCGACCCAGTCACGTCCTCGTCTCGTCTCCGTTTCGTGTTCGGAGTCACCTAGTGCAG” here?
The binding signal was 10200 fluorescence intensity (a.u.).

Which binding signal does the source give for “GCGTCGAGGGCGGGCGGCAGCGCTTGGTGGCGGTGGGGCGCGGAGTCACCTAGTGCAG” here?
The binding signal was 12400 fluorescence intensity (a.u.).

For “CTCGTTTGAACAATCTCGCGCCCAAAGTCAGACCATGCATCGGAGTCACCTAGTGCAG”, which binding signal is on record?
The binding signal was 10100 fluorescence intensity (a.u.).

For “AAACCCACACACACACAACACATCTCGCCTCCTCCCAAAACGGAGTCACCTAGTGCAG”, which binding signal is on record?
The binding signal was 8240 fluorescence intensity (a.u.).

With “GCCCAATCCGCCTGTCTCTCTCTCGTTCCCCTCCAATCCACGGAGTCACCTAGTGCAG” as the sequence, how does the binding signal read?
Its binding signal is 8900 fluorescence intensity (a.u.).

How did the binding signal turn out when “TAGCGTTTTGTGGATATGGGGTGTGTTTGGTTGCTCGTATCGGAGTCACCTAGTGCAG” was run?
Its binding signal is 9960 fluorescence intensity (a.u.).

For “TATTCACGGCTGCACTTATTTTGGGACGGAGGTAGTATTTCGGAGTCACCTAGTGCAG”, which binding signal is on record?
Its binding signal is 8070 fluorescence intensity (a.u.).

Which binding signal does the source give for “GGTCTTGTGGATGGTGGATATGCAGGAGGCACTGCAGAGGCGGAGTCACCTAGTGCAG” here?
Its binding signal is 8090 fluorescence intensity (a.u.).

“TCCATCATGTGCATATACGAGGTTCTTATCGTGATCTACCCGGAGTCACCTAGTGCAG” was tested. Which binding signal did it give?
The binding signal was 8510 fluorescence intensity (a.u.).

For “CGTTCCGCCTCGCCGCCTCGGGGCTCGGCCTCGTCCTCGTCGGAGTCACCTAGTGCAG”, which binding signal is on record?
Its binding signal is 9310 fluorescence intensity (a.u.).

“TCCCCAGTGGAATCGCACAGTTTTTCTATTTTTGGGTCTTCGGAGTCACCTAGTGCAG” was tested. Which binding signal did it give?
The binding signal was 9350 fluorescence intensity (a.u.).

“CATTTTCGTGGGCTTTGATTATTATTCGTCGAAACTTCCCCGGAGTCACCTAGTGCAG” was tested. Which binding signal did it give?
The binding signal was 11800 fluorescence intensity (a.u.).

With “GCGCGCCGCGCTCACGGGTGGGTCAAGGCAAGGGGAAGGGCGGAGTCACCTAGTGCAG” as the sequence, how does the binding signal read?
Its binding signal is 9400 fluorescence intensity (a.u.).

Which binding signal does the source give for “CACCACCCTAGCCTCGCAGCAACCATCTACGCATCTCGCTCGGAGTCACCTAGTGCAG” here?
The binding signal was 8060 fluorescence intensity (a.u.).

With “TTCGAGCACATCTACTTCGCGCTCCCAAACTCCGTGGTGTCGGAGTCACCTAGTGCAG” as the sequence, how does the binding signal read?
The binding signal was 8080 fluorescence intensity (a.u.).

For “CCGTTGTTTAACCCGTGATTTGAATCTCACCCTACCACGACGGAGTCACCTAGTGCAG”, which binding signal is on record?
Its binding signal is 9640 fluorescence intensity (a.u.).

With “TCGTTCAACGCTTGCTTTTGCTTACTAGGCCGCTATTGCACGGAGTCACCTAGTGCAG” as the sequence, how does the binding signal read?
The binding signal was 8570 fluorescence intensity (a.u.).

“CATAATTCACAATATCTTTGACCACATAGGACATGTTACCCGGAGTCACCTAGTGCAG” was tested. Which binding signal did it give?
Its binding signal is 8170 fluorescence intensity (a.u.).

How did the binding signal turn out when “CCCGAAAACCCACTTTTATCACTTCACCTCTCGTAGTTACCGGAGTCACCTAGTGCAG” was run?
The binding signal was 9620 fluorescence intensity (a.u.).

Which binding signal does the source give for “TTTTATTCCCTAATCTCACTGTTTACAGCGACGCAACTCCCGGAGTCACCTAGTGCAG” here?
Its binding signal is 8450 fluorescence intensity (a.u.).

How did the binding signal turn out when “AAACATCCGGGCTCCATCTCTAAGGAGCACTTGCACAAACCGGAGTCACCTAGTGCAG” was run?
The binding signal was 9270 fluorescence intensity (a.u.).

Which binding signal does the source give for “CATGTTTTTCTTATTCCTACGTTTTTTCAATCATACGATTCGGAGTCACCTAGTGCAG” here?
Its binding signal is 8590 fluorescence intensity (a.u.).

Which binding signal does the source give for “CTAGTTCTTGCTCTTTTCTCGACGTCATCCGATGGCCATGCGGAGTCACCTAGTGCAG” here?
The binding signal was 11600 fluorescence intensity (a.u.).

Which binding signal does the source give for “GTTCCAGTAATCCATGCCAAGTCCATATATTGTTTGTCTTCGGAGTCACCTAGTGCAG” here?
Its binding signal is 10600 fluorescence intensity (a.u.).

How did the binding signal turn out when “CCATGGCCGCGGTGAGACCCTCTCGCCTCTGCTCGTTTTGCGGAGTCACCTAGTGCAG” was run?
The binding signal was 8400 fluorescence intensity (a.u.).

Source: publication PMC7819943, “Rice protein-binding microarrays: a tool to detect cis-acting elements near promoter regions in rice”
